Results from article PMC10761746.
Results are given in words; binding and its absence hold for the method and conditions named. For part of these data: Binding seen in cells or lysates may run through a third protein. Some results given as binding are weak or reduced against the parent protein; the word gives no strength. For part of these data: Tags and fused reporters may be left off the sequences shown.

Sequences of proteins named here, by UniProt entry; tags and fusion partners are left off.
UniProt P0A7Z7: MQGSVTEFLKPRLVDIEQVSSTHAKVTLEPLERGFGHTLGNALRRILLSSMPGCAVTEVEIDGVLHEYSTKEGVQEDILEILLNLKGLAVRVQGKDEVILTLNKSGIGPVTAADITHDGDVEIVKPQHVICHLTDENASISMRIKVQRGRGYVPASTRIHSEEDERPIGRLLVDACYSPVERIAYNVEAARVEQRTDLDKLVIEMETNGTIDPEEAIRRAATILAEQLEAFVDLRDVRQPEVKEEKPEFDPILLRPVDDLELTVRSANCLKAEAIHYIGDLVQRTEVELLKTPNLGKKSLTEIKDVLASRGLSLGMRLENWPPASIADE
UniProt P69066: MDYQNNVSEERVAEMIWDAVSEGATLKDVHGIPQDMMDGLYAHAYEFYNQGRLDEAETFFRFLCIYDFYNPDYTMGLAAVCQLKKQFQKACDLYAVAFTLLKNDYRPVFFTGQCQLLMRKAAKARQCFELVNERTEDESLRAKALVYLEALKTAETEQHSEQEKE

How the values were obtained:
LexA_(DBDmut)-RpoA = LexA_(DBDmut)-RpoA (UniProt P0A7Z7); experiment: two-hybrid
[1] = target: SicA two-hybrid fusion from pSR659-SicA (Salmonella enterica serovar Typhimurium) (UniProt P69066); experiment: two-hybrid
[2] = target: His6-RpoA expressed from pET28-RpoA in S. Typhimurium invF::3xFLAG (UniProt P0A7Z7); experiment: pull-down

B1: LexA_(DBDwt)-InvF (protein, UniProt P69343 1-216)
chain: MSFSESRHNENCLIQEGALLFCEQAVVAPVSGDLVFRPLKIEVLSKLLAFIDGAGLVDTTYAESDKWVLLSPEFRAIWQDRKRCEYWFLQQIITPSPAFNKVLALLRKSESYWLVGYLLAQSTSGNTMRMLGEDYGVSYTHFRRLCSRALGGKAKSELRNWRMAQSLLNSVEGHENITQLAVNHGYSSPSHFSSEIKELIGVSPRKLSNIIQLADK
binding (LexA_(DBDmut)-RpoA): binds
binding [1]: binds

B2: InvF-FLAG (protein, UniProt P69343 1-216)
chain: B1 chain
binding [2]: binds
